Results taken from the supplement of paper PMC7666118.
This is one part of the list.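 The calls were made as follows: active = dose-dependent thermal stabilisation significant by F-test of dose-response against flat model at 10% FDR; inactive = not significant.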

Chains of the proteins cited; added tags and fusions are not shown. Lines headed by an entry give the natural chain unless they say otherwise; changes in a name come on top.
UniProt Q99592: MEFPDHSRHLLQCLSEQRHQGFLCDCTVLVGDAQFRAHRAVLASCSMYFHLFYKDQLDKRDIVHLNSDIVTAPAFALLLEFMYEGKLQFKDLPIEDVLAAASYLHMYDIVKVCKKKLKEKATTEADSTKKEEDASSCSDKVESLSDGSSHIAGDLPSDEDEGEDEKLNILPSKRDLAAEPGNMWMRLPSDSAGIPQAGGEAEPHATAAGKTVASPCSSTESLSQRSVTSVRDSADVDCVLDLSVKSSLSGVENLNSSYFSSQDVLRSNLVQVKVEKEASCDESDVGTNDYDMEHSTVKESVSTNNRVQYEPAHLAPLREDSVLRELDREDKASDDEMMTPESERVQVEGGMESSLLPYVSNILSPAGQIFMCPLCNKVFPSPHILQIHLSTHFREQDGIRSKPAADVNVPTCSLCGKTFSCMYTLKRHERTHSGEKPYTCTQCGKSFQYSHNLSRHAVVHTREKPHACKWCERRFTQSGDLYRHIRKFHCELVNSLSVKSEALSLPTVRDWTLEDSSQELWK
UniProt Q96DT7: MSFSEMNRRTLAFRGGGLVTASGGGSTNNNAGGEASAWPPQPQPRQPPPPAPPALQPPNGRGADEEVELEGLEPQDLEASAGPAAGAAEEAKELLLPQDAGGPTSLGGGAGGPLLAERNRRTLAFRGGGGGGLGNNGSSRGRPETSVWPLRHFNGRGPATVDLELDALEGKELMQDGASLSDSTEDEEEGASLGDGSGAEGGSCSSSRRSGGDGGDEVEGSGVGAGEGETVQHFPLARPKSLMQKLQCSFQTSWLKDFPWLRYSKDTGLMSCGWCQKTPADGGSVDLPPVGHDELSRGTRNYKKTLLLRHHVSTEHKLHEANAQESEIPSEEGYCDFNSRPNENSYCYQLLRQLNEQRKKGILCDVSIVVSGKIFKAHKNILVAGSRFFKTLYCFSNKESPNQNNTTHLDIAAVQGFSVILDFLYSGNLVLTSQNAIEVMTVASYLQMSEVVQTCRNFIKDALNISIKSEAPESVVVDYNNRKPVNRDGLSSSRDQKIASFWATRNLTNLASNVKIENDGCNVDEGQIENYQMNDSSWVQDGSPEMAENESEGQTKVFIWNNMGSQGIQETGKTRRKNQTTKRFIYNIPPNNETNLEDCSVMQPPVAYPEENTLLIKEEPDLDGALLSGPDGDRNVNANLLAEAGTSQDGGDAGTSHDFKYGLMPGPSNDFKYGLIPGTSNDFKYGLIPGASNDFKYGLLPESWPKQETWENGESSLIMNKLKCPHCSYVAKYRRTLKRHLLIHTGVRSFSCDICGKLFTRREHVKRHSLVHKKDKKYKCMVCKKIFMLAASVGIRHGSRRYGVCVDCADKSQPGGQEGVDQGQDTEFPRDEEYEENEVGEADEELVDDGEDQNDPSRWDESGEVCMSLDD
UniProt Q96JG6: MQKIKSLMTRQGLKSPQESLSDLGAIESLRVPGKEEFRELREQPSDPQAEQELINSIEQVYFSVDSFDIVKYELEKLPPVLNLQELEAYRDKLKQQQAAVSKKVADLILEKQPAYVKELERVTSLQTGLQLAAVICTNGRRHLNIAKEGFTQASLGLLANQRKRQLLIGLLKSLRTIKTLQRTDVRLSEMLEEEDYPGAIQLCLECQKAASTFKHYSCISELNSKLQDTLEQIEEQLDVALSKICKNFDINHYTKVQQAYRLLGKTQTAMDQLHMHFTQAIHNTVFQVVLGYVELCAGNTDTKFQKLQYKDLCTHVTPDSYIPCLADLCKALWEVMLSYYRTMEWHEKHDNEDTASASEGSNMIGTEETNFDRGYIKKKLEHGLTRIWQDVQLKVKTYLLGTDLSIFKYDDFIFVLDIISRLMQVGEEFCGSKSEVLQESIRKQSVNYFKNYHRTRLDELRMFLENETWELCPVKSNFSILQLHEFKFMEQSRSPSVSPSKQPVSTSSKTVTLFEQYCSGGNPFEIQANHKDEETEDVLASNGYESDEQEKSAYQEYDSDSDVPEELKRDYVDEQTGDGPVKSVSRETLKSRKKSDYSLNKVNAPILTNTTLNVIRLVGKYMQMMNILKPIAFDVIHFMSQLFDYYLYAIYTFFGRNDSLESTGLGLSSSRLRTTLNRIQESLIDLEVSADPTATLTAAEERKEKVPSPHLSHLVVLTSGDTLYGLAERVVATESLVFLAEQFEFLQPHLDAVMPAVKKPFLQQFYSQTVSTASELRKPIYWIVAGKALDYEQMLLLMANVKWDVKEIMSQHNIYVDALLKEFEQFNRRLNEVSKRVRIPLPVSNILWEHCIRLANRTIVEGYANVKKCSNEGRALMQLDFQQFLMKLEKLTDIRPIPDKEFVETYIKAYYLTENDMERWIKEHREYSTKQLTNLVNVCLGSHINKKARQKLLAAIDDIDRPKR
UniProt Q96RL7: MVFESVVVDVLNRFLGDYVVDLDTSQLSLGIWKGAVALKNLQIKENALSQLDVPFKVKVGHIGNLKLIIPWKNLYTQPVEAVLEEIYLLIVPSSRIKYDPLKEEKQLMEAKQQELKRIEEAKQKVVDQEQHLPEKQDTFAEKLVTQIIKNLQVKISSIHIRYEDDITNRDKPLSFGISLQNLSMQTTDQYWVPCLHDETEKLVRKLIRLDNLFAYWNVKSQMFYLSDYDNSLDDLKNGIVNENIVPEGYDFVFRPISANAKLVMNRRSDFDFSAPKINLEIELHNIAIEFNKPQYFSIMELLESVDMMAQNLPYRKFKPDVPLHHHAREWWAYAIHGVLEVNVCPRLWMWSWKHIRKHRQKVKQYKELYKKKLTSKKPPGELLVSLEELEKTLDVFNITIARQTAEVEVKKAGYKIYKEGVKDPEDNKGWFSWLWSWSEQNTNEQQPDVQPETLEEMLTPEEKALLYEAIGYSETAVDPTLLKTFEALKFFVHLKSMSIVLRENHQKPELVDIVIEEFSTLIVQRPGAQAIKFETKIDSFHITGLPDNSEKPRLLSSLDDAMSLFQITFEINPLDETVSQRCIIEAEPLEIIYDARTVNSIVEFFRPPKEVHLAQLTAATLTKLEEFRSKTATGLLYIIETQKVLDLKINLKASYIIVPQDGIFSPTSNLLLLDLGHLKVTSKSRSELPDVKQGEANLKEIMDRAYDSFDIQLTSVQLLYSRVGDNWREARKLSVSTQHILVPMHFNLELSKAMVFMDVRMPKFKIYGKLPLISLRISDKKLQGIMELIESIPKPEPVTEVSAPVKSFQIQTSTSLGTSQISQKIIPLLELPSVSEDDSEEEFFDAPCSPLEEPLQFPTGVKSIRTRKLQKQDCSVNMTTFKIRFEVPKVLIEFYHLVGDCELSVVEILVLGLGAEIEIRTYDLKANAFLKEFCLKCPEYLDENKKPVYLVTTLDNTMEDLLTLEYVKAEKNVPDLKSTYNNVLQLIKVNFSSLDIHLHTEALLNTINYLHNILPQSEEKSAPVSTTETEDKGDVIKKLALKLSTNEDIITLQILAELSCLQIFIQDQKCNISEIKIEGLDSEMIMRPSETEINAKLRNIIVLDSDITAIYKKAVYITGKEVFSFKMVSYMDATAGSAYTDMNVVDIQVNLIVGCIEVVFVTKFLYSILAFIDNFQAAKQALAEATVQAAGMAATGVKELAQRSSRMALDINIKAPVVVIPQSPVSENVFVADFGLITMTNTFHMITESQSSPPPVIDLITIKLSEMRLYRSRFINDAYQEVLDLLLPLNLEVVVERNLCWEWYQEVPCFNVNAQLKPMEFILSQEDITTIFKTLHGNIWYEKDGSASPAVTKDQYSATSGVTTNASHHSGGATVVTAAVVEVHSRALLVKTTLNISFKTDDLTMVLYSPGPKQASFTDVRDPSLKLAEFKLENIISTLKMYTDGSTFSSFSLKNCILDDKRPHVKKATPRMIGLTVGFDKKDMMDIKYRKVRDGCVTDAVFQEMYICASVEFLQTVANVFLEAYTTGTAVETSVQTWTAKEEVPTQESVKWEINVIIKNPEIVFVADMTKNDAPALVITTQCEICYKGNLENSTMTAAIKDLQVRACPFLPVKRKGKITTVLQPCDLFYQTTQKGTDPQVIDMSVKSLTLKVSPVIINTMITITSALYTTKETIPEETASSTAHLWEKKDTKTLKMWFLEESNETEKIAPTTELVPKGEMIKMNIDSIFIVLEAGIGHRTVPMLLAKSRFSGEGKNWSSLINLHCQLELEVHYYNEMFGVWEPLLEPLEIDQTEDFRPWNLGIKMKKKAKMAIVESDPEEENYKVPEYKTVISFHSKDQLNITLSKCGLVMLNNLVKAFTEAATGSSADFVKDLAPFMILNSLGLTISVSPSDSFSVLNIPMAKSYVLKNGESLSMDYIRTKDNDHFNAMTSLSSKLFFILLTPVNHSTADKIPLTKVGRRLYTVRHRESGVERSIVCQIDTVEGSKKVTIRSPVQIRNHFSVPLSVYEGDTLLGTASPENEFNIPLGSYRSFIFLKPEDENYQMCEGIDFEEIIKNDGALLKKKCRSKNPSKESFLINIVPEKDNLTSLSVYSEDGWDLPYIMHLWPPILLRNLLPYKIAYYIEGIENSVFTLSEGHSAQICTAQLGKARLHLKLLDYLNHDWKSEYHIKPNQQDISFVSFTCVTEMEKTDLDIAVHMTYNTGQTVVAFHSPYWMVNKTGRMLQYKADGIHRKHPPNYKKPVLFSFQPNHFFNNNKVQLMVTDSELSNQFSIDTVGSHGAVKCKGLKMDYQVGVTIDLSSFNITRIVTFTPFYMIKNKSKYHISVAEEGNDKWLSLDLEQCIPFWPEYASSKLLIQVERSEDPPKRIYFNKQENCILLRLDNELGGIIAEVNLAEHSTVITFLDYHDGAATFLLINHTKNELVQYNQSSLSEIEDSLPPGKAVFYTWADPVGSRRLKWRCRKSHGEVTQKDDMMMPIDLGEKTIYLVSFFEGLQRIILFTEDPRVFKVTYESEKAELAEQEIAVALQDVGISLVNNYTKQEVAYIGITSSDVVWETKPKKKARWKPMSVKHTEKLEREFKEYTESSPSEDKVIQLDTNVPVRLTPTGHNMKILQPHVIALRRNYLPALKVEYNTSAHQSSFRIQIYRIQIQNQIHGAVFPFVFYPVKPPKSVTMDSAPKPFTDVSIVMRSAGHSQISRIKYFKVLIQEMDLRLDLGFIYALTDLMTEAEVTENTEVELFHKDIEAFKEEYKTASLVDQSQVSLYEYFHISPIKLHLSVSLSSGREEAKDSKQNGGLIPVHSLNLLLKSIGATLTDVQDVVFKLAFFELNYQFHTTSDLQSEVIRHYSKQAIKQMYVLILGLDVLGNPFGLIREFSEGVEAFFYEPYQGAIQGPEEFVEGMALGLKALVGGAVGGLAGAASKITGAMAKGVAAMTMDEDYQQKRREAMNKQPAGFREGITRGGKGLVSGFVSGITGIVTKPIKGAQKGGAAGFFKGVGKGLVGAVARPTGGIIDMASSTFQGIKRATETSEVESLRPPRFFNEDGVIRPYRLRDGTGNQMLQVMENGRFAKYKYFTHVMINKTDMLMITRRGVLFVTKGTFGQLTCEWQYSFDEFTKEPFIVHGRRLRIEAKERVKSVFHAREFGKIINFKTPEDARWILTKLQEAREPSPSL
UniProt Q9Y4E8: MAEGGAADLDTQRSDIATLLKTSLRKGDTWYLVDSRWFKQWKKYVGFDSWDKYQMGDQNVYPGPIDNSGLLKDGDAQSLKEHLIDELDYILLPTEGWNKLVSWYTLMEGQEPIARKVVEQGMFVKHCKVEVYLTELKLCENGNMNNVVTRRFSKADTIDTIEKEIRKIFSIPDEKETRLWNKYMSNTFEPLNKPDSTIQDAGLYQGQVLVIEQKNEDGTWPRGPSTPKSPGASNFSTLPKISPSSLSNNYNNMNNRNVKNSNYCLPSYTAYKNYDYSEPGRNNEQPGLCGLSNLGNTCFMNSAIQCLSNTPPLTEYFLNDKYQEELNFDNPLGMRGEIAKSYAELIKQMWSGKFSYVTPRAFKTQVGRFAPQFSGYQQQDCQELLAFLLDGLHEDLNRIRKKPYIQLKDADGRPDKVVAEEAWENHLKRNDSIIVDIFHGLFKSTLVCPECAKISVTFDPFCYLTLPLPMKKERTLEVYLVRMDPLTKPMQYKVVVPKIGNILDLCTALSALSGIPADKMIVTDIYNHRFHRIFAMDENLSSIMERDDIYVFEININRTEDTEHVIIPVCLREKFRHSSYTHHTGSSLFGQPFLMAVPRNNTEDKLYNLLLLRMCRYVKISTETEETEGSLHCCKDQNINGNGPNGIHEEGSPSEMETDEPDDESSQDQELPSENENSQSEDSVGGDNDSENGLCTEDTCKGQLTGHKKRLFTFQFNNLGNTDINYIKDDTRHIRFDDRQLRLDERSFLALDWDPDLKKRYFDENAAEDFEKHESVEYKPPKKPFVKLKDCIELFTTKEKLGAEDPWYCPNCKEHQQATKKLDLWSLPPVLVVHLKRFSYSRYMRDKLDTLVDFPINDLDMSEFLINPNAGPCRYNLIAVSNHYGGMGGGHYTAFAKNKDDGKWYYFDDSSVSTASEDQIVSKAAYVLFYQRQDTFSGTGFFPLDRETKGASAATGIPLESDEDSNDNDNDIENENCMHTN

compound: Nc1nc2c(ncn2[C@@H]2O[C@H](COP(=O)(O)OP(=O)(O)OP(=O)(O)O)[C@@H](O)[C@H]2O)c(=O)[nH]1; experiment: dose-dependent thermal stabilisation call (2D-TPP, DLPTP, 10% FDR) (binary (1 = stabilised)); higher = stabilised by the compound; conditions: system: Jurkat gel-filtered lysate; concentration range 1-500 µM
Description: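 2D thermal proteome profiling in gel-filtered Jurkat E6.1 lysate (2 mg/ml) treated with NaGTP (0, 1, 10, 100, 500 uM) for 10 min at room temperature, then heated 3 min at one of 12 temperatures (42-63.9 C). Soluble protein was quantified by TMT10 MS. The value is the DLPTP call of the paper: dose-dependent thermal stabilisation over all temperatures at 10% FDR (F-test of a dose-response against a flat model); one experiment, one call per tested protein.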

dose-dependent thermal stabilisation call, active:
UBE3C (UniProt Q15386) 1, UNC119B (UniProt A6NIH7) 1, USP9X (UniProt Q93008) 1, USP8 (UniProt P40818) 1

dose-dependent thermal stabilisation call, inactive:
WDR48 (UniProt Q8TAF3) 0, ZC3H13 (UniProt Q5T200) 0, UPF2 (UniProt Q9HAU5) 0, UBE2D2 (UniProt P62837) 0, XRCC6 (UniProt P12956) 0, VTI1A (UniProt Q96AJ9) 0, USP7 (UniProt Q93009) 0, WDR4 (UniProt P57081) 0, WDR61 (UniProt Q9GZS3) 0, YTHDF2 (UniProt Q9Y5A9) 0, ZBTB18 (UniProt Q99592) 0, USP22 (UniProt Q9UPT9) 0, ZBTB10 (UniProt Q96DT7) 0, VPS50 (UniProt Q96JG6) 0, UBFD1 (UniProt O14562) 0, ZBED3 (UniProt Q96IU2) 0, VAPB (UniProt O95292) 0, VPS39 (UniProt Q96JC1) 0, VPS13A (UniProt Q96RL7) 0, UBE4A (UniProt Q14139) 0, VARS (UniProt P26640) 0, USP38 (UniProt Q8NB14) 0, XPA (UniProt P23025) 0, WDHD1 (UniProt O75717) 0, UBE2T (UniProt Q9NPD8) 0, UTP14A (UniProt Q9BVJ6) 0, USP15 (UniProt Q9Y4E8) 0, YWHAB (UniProt P31946) 0, YWHAG (UniProt P61981) 0, USF2 (UniProt Q15853) 0, UBE2L6 (UniProt O14933) 0, VBP1 (UniProt P61758) 0, ZC4H2 (UniProt Q9NQZ6) 0, UBL4A (UniProt P11441) 0, UBE2H (UniProt P62256) 0, WDR11 (UniProt Q9BZH6) 0
